Consider 37 compounds from PubChem BioAssay AID2685 (National Center for Advancing Translational Sciences (NCATS), 2010).

Each structure is given as a SMILES string. Some of the results follow. Further columns of the screen follow, without active or inactive calls. Compounds called inactive in the main read-out are mostly missing here. The note in brackets gives the kind of curve behind each potency; many fits are weak.

The nature of this test: qHTS Assay for Lipid Storage Modulators in Drosophila S3 Cells.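 For cell number change: cells counted by Cell Tracker Red CMTPX staining in the red channel.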 As to conditions: BODIPY lipid droplet fluorescence, 18-24 h; for cell number change: measured here: cell count max response, cells fed with added oleic acid. The method, boiled down:
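Drosophila S3 cells got compounds at several concentrations plus oleic acid (400 uM solution). Laser-scanning cytometry with 488 nm excitation read lipid droplets at 500-530 nm and cells at 575-640 nm. Percent activity was relative to 20 uM Triacsin C.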

Where [1] appears, read: measured here: cell number channel AC50, cells fed with added oleic acid.
Setting [2] is: measured here: lipid fluorescence (Fed channel) AC50, cells fed with added oleic acid.

Consider `CC(=O)c1cccc(Nc2nc(-c3cccnc3)cs2)c1`, for which the cell number change is -13.7%.

As to `Cc1ccc(Nc2nc3ccccc3s2)c(C)c1`, the cell number change is -28.6%. In addition, the AC50 (in general, the concentration giving half of the maximal activity seen) under setting [1] is 0.146 µM [falling, full curve, poor fit]. Besides, the concentration at half-maximal activity (AC50) under setting [2] was 9.2 µM [rising, partial curve].

As to `Nc1c(-c2cccs2)cnn1-c1nc(-c2ccc(F)cc2)cs1`, the cell number change was 13.2%.

In the case of `COc1cccc(NC(=S)N/N=C2\CC3CCC2(C)C3(C)C)c1` (centres undefined), the cell number change was -57.8%.

On to `CCOC(=O)CSc1nnc(Cc2cc(=O)[nH]c(=O)[nH]2)n1-c1ccc(Cl)cc1`, for which the cell number change was 35.9%. Besides, the AC50 under setting [1] is 25.9 µM [rising, single point].

Regarding `CCc1ccc(C2CC(c3ccccc3)n3ncnc3N2)cc1` (centres undefined), the cell number change was -0.395%. The concentration at half-maximal activity (AC50) under setting [2] is 6.51 µM [rising, partial curve, poor fit].

Consider `COc1ccc(Cn2c(-c3ccco3)nc3oc4ccccc4c(=O)c3c2=O)cc1`, for which the AC50 reads like this: under setting [1], 2.91 µM [rising, partial curve]; under setting [2], 3.66 µM [rising, partial curve].

As to `O=S1(=O)CCN2C=C(Cl)C=C(Cl)C2=N1`, the cell number change is -46%. Besides, the AC50 under setting [1] is 25.9 µM [falling, single point].

As for `O=C(CCNC(=O)Cn1cnc2ccccc2c1=O)NCC1COc2ccccc2O1` (centres undefined), the cell number change was -21.9%. Also, the AC50 under setting [2] is 16.4 µM [falling, single point].

Consider `O=C(c1ccc(N2CCC3(CC2)OCCO3)c([N+](=O)[O-])c1)N1CCOCC1`, for which the AC50 under setting [2] is 5.8 µM [falling, single point].

On to `COc1ccc(OCC(=O)N2N=C(C)CC2(O)C(F)(F)F)cc1` (centres undefined), for which the cell number change was found to be 51.1%. Further, under setting [1], the AC50 was 20.6 µM [rising, partial curve, poor fit]. The half-maximal activity concentration (AC50) under setting [2] is 0.00461 µM [rising, full curve, poor fit].

In the case of `COc1ccc(S(=O)(=O)Cc2ccc(C(=O)NC3CCCCCC3)o2)cc1`, the cell number change was 0.59%.

`O=C(Nc1ccccc1O)c1cccc(NC(=O)c2ccco2)c1`: the cell number change was -36.1%. Further, the AC50 under setting [1] was 18.4 µM [falling, single point]. Besides, under setting [2], the AC50 was 29.1 µM [falling, single point].

Take `O=C(N/N=C/C=C/c1ccccc1)c1cnccn1`: the cell number change turned out to be 35.7%. The AC50 under setting [1] was 13 µM [rising, single point]. The AC50 under setting [2] is 20.6 µM [rising, partial curve].

Regarding `O=C(Nn1c(SCc2cccc([N+](=O)[O-])c2)nc2ccccc2c1=O)c1ccccc1`, the cell number change is -0.329%.

Regarding `CC(=O)COc1cc2c(-c3cc4ccccc4o3)cc(=O)oc2cc1C`, the cell number change was found to be 50.8%. Also, under setting [1], the AC50 was 18.4 µM [rising, single point].

In the case of `CCc1ccc(N2CC(C(=O)Nc3ccc(S(=O)(=O)N4CCCCC4)cc3)CC2=O)cc1` (centres undefined), the cell number change was -14.1%. Besides, the AC50 under setting [2] was 2.91 µM [falling, single point].

Consider `Cc1ccc(C(=O)NNC(=O)CCC(=O)NCc2ccccc2)cc1Br`, for which the cell number change was -19%. Further, the AC50 under setting [1] is 0.651 µM [falling, full curve, poor fit]. Further, under setting [2], the AC50 is 29.1 µM [rising, single point].

For the compound `Cc1ccc(-n2ncc3c2CCCC3NC(=O)CCc2cnccn2)cc1C` (centres undefined), the cell number change is -56.9%. For the same compound, the half-maximal activity concentration (AC50) under setting [1] is 1.16 µM [falling, full curve]. The AC50 under setting [2] is 29.1 µM [falling, single point].

In the case of `CCOC(=O)c1cccc(NC(=O)CSc2nnc(CNc3ccc(C)cc3)n2CC)c1`, the cell number change was -46.2%. Further, under setting [1], the AC50 was 20.6 µM [falling, single point]. Moreover, the AC50 under setting [2] is 0.731 µM [falling, full curve, poor fit].

Consider `CCOC(=O)c1c(NC(=O)CN2CCN(C(=O)C3CCCO3)CC2)sc(C)c1C` (centres undefined), for which the cell number change was -10.2%.

Consider `CCOc1ccc(C(=O)NC(=S)N2CCN(c3ccc(C(F)(F)F)cc3[N+](=O)[O-])CC2)cc1`, for which the cell number change came to 12.7%. In addition, the AC50 under setting [2] was 29.1 µM [rising, single point].

Consider `Cc1c(Cl)cccc1NC(=O)CN1CCC(NC(=O)C2CCCCC2)CC1`, for which the cell number change was -26%. Moreover, the AC50 under setting [2] is 20.6 µM [falling, partial curve, poor fit].

For the compound `CCOC(=O)Cn1c(=O)c2c(nc3n2CCN3c2ccc(C)cc2)n(C)c1=O`, the cell number change was -1.43%. The AC50 under setting [2] was 18.4 µM [rising, single point].

On to `COc1ccc(N2CCN(C(=S)Nc3cc(C)cc(C)c3)CC2)cc1`, for which the cell number change amounted to 22.1%. The AC50 under setting [2] was 16.4 µM [rising, partial curve].

Turning to `COC(=O)c1ccc(NC(=O)C(C)N2C(=O)c3ccccc3C2=O)cc1` (centres undefined), the cell number change is 33.6%. The AC50 under setting [1] was 32.6 µM [rising, single point].

For `CC(C)c1ccc(NC(=O)C2CCCCC2C(=O)O)cc1` (centres undefined), the cell number change came to 7.2%. Under setting [2], the AC50 is 25.9 µM [falling, partial curve].

Take `O=Cc1cn(-c2ccccc2)nc1-c1cc2cc(O)ccc2oc1=O`: the cell number change was found to be 24.4%. For the same compound, the AC50 under setting [2] is 6.51 µM [falling, single point].

Take `Cc1nn(-c2ccccc2)c2sc(C(=O)N(CC(=O)NC(C)(C)C)Cc3ccco3)cc12`: the cell number change is -95.2%. Besides, under setting [1], the AC50 is 18.4 µM [falling, single point]. Also, the half-maximal activity concentration (AC50) under setting [2] was 29.1 µM [falling, single point].

As for `O=C1CC(C(=O)N2CCc3ccccc32)CN1c1cccc(C(F)(F)F)c1` (centres undefined), the cell number change is -18.4%.

Turning to `CCCOc1ccc(C2=NNC(c3cccs3)=Nc3ccc(OC)cc32)cc1`, the cell number change was -38.8%. The AC50 under setting [1] was 29.1 µM [falling, single point]. The AC50 under setting [2] was 23.1 µM [falling, single point].

As for `CC(C)c1ccc(/C=C2\SC(=S)N(CCC(=O)NCCCn3ccnc3)C2=O)cc1`, the cell number change is -18%. For the same compound, the AC50 under setting [2] is 29.1 µM [falling, single point].

As for `Cc1ccc(S(=O)(=O)N[C@H](C(=O)N2CCC(C(=O)N[C@H](C(=O)O)c3ccccc3)CC2)C(C)C)cc1`, the cell number change was -0.872%.

For `Cc1cccc(NC(=O)c2ccc3c(c2)C(=O)N(Cc2cccnc2)C3=O)c1C`, the cell number change was -11.1%. Under setting [2], the AC50 was 14.6 µM [falling, partial curve, poor fit].

On to `COc1cccc(N2C(=NC(=O)c3ccccc3)SC3CS(=O)(=O)CC32)c1` (centres undefined), for which the cell number change came to 1.3%. Further, under setting [2], the half-maximal activity concentration (AC50) is 6.51 µM [falling, single point].

Regarding `CCCCc1nc(SCC(=O)Nc2nnc(C(C)C)s2)n[nH]1`, the cell number change amounted to 43.1%. The half-maximal activity concentration (AC50) under setting [1] was 20.6 µM [rising, partial curve, poor fit].

`CC(=O)Nc1ccc(NC(=O)C(C)Sc2n[nH]c(-c3cccs3)n2)cc1` (centres undefined): the cell number change came to 11.8%. Under setting [2], the AC50 is 23.1 µM [rising, single point].
